The values that follow come from article PMC11425227.

This experiment concerns the target p62/SQSTM1 (mouse (endogenous in primary hepatocytes)) (UniProt Q64337). As to the kind of experiment: co-IP; reverse co-IP: endogenous p62 precipitated with anti-p62 antibody from lysates of primary hepatocytes infected with Ad-Eepd1-flag, treated with Baf A1 (100 nM, 4 h) under CIH (12 h and 24 h); IP lysis buffer 50 mM Tris-HCl, 150 mM NaCl, 1 mM EDTA, 1% NP-40, pH 7.4; overnight at 4 C; protein A/G magnetic beads; immunoblot for Eepd1. In general terms: A western blot detects proteins with antibodies after separation by electrophoresis.

Results are given in words; binding and its absence hold for the method and conditions named. In cells and extracts the contact can be indirect. Some binding calls cover weakened binding; strength is not graded here. Sequences can lack the tags named with a protein.

B1: Eepd1-flag (Eepd1 overexpressed from adenovirus Ad-Eepd1-flag) (enzyme, UniProt Q3TGW2 1-569)
chain: MGSTLGCHRSIPRDPSDLSHNRKFSAACNFSNILVNQERLNINTATEEELMTLPGVTRAVARSIVEYREYIGGFKKVEDLALVSGVGATKLEQVKFEICVSSKGNSAQHSPSSLRRDLLAEQQPHHLTTTVPLTPRVNINTATLAQLMSVRGLSEKMALSIVDYRREHGPFRSVEDLVRMDGINAAFLDRIRHQVFAERSRPPSTHTNGGLTFTAKPHPSPTSLSLQSEDLDLPPGGPTQIISMRPSVEAFGGMRDGRPVFRLATWNLQGCSVEKANNPGVREVVCMTLLENSIKLLAVQELLDKEALEKFCTELNQPILPNIRKWKGSRGCWRSIVAEKPSNQLQKGPCYSGFLWDTAANVELRDIPGRESSPSNGHAKAVGPSPFLARFKVGSNDLTLVNLQLTALALPGAENSSKNHSDGHRLLNFALTLQETLKGEKDVVILGDFGQGPDSNDYDILRREKFHHLVPAHTFTNISTRNPQGSKSVDNIWISKSLKKVFTGHWAVVREGLTNPWIPDNWSWGGVASEHCPVLAELYMEKDWSKKEVPRNGNGVTLEPSEANIKHER
Regarding B1, the binding result was “binds”.
